Assay results as given in PMC10607609, “The Functionality of IbpA from Acholeplasma laidlawii Is Governed by Dynamic Rearrangement of Its Globular–Fibrillar Quaternary Structure” (International Journal of Molecular Sciences, 2023).
These are yes or no findings as the source states them, for the method shown. Binding calls can cover weak binding; strength is not graded here. Tags and fused reporters may be left off the sequences shown.

Target: T1, AlIbpAΔN12_(His6), AlIbpA lacking 12 N-terminal amino acid residues (Acholeplasma laidlawii) (UniProt A9NFB2)
T1 sequence: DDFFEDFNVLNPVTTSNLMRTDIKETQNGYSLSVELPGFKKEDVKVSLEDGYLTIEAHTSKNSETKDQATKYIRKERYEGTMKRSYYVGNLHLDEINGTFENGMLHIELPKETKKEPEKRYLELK
Test: cross-linking; sHSP (1.0 mg/mL) mixed with human insulin (1.0 mg/mL) for 10 min at 25 °C or 56 °C, then 0.05% glutaraldehyde for 20 min, stopped with 100 mM Tris pH 7.4; the product was used as analyte in BLI; both purified

Question: For human insulin (ligand), which binding is on record?
Answer: binds
